Data taken from the supplement of paper PMC10849652.
The other results are listed elsewhere or left out.

Sequences of proteins named here, by UniProt entry; tags and fusion partners are left off. A change or cut given only in a name is not applied to a line headed by its entry.
UniProt Q92882: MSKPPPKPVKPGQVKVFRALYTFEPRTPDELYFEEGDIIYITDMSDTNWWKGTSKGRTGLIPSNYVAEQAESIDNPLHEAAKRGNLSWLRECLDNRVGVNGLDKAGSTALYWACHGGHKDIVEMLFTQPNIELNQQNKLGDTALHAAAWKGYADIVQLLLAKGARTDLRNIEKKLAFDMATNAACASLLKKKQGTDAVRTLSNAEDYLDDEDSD
UniProt Q8WZ82: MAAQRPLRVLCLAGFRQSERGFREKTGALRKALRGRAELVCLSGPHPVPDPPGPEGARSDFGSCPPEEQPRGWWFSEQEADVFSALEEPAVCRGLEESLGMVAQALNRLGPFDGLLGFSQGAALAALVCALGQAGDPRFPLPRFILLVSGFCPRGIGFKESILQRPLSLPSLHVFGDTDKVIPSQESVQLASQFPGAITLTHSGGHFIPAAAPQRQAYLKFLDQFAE
UniProt Q9BYG5: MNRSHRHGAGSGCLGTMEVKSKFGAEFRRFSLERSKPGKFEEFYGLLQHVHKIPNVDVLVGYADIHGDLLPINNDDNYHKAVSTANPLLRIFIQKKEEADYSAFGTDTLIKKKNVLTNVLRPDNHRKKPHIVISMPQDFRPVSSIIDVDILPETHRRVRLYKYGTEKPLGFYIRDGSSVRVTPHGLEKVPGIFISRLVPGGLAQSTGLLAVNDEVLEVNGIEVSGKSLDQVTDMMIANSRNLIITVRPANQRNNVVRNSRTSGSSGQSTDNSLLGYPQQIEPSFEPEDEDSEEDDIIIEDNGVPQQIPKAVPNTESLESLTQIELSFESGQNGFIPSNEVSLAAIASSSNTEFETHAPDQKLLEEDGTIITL
UniProt Q9BW27: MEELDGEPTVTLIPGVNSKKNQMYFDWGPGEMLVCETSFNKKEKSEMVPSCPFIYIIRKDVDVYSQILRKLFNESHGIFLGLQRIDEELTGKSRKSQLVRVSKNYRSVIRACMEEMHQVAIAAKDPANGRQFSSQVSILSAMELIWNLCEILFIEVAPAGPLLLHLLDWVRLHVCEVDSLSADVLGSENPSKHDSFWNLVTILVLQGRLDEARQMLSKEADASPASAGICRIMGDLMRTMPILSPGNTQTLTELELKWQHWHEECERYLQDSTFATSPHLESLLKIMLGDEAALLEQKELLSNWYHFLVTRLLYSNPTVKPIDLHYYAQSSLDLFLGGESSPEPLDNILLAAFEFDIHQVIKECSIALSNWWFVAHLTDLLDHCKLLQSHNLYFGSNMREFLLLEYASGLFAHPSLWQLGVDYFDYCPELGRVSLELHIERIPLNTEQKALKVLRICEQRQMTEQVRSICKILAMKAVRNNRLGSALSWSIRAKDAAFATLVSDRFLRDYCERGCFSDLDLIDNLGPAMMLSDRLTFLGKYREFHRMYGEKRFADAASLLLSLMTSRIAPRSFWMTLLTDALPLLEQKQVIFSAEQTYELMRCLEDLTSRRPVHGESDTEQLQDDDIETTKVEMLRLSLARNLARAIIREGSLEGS
UniProt Q6VY07, whole entry, looked up: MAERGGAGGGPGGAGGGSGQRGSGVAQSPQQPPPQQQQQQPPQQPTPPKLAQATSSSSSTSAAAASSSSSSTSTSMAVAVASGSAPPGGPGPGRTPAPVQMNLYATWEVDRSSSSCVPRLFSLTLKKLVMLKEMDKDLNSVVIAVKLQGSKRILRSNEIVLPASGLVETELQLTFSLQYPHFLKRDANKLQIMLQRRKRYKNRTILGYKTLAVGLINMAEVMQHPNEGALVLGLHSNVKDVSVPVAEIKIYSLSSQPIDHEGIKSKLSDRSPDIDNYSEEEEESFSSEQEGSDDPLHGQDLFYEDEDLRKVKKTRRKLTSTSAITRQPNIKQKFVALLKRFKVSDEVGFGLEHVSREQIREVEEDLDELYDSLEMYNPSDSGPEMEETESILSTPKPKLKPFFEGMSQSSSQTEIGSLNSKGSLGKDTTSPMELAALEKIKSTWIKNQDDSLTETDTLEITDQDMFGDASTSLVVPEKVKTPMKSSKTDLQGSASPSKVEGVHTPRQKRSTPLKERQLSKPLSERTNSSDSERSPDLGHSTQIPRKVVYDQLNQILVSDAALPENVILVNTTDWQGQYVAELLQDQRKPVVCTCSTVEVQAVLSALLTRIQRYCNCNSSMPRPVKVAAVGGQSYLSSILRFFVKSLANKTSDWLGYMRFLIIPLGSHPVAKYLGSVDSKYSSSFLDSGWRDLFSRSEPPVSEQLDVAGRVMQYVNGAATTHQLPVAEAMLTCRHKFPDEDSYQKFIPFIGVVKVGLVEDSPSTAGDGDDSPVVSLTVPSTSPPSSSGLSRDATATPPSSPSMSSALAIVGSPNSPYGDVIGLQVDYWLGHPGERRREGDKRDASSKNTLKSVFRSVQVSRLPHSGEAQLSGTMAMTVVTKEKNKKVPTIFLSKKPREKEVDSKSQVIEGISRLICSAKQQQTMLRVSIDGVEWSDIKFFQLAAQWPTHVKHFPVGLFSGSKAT
UniProt Q5BJF6: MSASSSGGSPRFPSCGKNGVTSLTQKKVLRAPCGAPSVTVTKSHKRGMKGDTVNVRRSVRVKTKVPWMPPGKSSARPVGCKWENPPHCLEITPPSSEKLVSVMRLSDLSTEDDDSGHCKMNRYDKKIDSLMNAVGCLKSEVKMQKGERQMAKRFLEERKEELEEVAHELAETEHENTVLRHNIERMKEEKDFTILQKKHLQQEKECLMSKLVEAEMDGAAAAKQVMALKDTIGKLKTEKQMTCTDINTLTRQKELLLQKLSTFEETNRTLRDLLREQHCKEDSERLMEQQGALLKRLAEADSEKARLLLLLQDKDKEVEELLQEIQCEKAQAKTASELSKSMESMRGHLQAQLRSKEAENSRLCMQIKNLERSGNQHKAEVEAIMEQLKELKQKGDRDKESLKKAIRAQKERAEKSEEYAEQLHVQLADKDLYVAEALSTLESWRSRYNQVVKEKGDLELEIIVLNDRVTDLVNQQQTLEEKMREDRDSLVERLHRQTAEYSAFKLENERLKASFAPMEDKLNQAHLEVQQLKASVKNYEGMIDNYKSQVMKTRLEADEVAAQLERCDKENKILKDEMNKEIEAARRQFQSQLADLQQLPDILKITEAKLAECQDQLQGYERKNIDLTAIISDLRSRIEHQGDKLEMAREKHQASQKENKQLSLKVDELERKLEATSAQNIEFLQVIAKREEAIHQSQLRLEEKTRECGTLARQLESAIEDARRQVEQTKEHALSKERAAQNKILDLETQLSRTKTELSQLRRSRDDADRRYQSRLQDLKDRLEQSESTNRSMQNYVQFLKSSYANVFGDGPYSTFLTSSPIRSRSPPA
UniProt Q9BTK6, whole entry, looked up: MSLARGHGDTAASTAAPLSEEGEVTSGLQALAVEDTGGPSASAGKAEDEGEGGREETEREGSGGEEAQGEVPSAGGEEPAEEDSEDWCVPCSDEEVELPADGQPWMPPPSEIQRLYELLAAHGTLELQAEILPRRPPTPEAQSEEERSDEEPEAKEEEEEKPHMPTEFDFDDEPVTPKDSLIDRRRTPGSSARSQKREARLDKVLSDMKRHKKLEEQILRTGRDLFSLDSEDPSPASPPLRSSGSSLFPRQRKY
UniProt Q96RD7, whole entry, looked up: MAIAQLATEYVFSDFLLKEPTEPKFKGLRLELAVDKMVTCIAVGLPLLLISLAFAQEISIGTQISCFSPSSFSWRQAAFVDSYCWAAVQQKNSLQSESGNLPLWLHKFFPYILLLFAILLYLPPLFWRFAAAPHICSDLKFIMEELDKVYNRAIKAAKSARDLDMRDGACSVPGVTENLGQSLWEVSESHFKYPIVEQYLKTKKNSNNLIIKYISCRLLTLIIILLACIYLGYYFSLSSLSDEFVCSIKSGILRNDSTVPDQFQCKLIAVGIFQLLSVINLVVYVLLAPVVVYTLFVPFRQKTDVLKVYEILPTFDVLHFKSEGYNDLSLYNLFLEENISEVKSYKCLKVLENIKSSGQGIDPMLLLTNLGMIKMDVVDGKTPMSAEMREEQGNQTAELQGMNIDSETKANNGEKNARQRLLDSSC
UniProt Q96G74: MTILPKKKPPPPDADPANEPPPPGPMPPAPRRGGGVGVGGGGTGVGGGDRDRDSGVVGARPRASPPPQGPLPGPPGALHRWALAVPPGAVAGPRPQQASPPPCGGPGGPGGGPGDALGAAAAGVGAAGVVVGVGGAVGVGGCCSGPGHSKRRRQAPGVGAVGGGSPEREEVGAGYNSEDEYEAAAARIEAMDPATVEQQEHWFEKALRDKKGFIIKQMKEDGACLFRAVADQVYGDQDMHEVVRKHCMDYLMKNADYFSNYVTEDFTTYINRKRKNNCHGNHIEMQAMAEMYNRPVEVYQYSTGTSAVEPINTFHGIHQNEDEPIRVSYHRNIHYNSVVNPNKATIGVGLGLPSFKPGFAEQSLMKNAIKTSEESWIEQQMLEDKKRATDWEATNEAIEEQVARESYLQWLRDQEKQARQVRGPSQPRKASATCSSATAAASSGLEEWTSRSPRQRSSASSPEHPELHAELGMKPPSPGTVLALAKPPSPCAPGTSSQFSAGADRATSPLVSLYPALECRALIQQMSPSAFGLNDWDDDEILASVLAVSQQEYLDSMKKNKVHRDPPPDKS
UniProt Q9BZF3: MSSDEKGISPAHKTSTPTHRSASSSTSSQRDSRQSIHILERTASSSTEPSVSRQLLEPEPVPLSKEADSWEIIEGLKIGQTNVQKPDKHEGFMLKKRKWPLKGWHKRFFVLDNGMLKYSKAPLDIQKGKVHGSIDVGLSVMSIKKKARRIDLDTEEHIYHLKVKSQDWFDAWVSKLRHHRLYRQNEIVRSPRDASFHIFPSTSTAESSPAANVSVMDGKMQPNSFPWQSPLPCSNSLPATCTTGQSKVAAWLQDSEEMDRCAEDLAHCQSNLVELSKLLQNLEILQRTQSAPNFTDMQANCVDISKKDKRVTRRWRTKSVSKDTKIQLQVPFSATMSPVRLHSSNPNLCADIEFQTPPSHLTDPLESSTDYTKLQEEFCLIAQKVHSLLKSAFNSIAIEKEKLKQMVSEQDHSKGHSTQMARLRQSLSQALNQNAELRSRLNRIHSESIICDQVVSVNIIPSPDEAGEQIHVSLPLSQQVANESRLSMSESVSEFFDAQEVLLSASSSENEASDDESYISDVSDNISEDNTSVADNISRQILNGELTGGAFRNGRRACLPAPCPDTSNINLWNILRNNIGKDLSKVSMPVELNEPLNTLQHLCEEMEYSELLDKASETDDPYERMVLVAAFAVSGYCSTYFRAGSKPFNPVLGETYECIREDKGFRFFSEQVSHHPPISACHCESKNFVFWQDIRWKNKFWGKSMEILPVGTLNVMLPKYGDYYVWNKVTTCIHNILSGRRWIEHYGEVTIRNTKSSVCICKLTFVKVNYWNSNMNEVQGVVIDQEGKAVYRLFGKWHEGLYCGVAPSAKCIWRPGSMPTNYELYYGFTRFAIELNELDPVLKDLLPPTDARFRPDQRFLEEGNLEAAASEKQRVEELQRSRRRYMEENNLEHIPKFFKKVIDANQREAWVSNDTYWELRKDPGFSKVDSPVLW
UniProt Q9NRP0: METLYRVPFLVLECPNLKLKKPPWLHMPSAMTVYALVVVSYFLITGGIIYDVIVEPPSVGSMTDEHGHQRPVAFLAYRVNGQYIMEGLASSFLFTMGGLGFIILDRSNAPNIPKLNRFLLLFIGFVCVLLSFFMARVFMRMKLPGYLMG
UniProt Q9NX40: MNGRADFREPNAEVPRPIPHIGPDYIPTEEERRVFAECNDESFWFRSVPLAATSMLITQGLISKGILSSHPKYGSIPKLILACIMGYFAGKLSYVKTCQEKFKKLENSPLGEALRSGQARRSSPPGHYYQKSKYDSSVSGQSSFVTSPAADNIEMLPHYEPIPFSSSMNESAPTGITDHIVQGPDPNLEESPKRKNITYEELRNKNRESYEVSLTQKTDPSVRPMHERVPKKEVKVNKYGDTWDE
UniProt Q7Z3B4: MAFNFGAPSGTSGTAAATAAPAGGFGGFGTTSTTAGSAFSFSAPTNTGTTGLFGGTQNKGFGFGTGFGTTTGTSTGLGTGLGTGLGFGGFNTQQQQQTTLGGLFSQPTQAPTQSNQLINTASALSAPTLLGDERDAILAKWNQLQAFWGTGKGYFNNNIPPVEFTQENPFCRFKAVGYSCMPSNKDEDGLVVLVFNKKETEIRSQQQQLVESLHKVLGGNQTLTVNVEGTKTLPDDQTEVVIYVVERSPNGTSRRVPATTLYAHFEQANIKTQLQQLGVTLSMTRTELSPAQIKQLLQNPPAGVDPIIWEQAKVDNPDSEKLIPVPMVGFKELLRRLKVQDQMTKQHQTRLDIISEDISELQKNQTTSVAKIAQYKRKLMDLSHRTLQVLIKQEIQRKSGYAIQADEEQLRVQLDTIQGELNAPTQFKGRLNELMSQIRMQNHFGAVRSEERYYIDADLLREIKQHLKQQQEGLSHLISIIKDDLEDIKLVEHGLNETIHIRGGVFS

Legend:
Test in all cases: log2 fold change, soluble protein after heating vs DMSO (PISA); higher = thermal stabilisation; K562 lysate, 10 uM; active = over 0.2 and 3.5 SD of the protein, either way, in both replicates (recomputed)
[1] = compound: C1=CC=C(C=C1)[C@H](COC2=CC3=C(C=C2)NC(=O)N3)NC(=O)C4=CC=CN(C4=O)CC5=CC(=C(C=C5)F)F
Method in brief: (§1)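 To prepare the extract, K562 pellets were dounce-homogenised in PBS pH 7.4 with 1 mM MgCl2, giving crude material at 1 mg/mL protein. This was treated with 10 μM compound for 30 min, then heated in aliquots for 3 min over 48°C-58°C before pooling and addition of NP-40 to 0.5% at 4°C. Centrifugation at 21,000xg for 90 min left soluble protein in the supernatant, which TMTpro 16plex LC-MS/MS quantified with equalised channel sums. Results are log-two fold changes in thermal stability compared with solvent controls, from duplicates.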

[2] = compound: CC1=C(SC2=C1C(=N[C@H](C3=NN=C(N32)C)CC(=O)N)C4=CC=C(C=C4)Cl)C
Method in brief: as §1

[3] = compound: CC1=C2C(=CC=C1)N=C(N(C2=O)C3=CC=CC=C3C)CN4C=NC5=C(N=CN=C54)N
Method in brief: as §1

[4] = compound: Cc1sc2c(c1C)C(c1ccc(Cl)cc1)=N[C@@H](CC(=O)OC(C)(C)C)c1nnc(C)n1-2
Method in brief: as §1

[5] = compound: c1ccc([C@@H]2C[C@H]2NC2CCNCC2)cc1
Method in brief: as §1

Measured: log2 fold change

OSTF1 (UniProt Q92882)
inactive: [1] 0.014 | [2] 0.001 | [3] 0.014 | [4] -0.017 | [5] -0.001

OVCA2 (UniProt Q8WZ82)
inactive: [1] 0.006 | [2] 0.007 | [3] 0.096 | [4] -0.001 | [5] 0.004

OGA (UniProt O60502)
inactive: [1] -0.024 | [2] -0.001 | [3] -0.021 | [4] 0.001 | [5] 0.001

OSBP (UniProt P22059)
inactive: [1] 0.007 | [2] 0.048 | [3] 0.036 | [4] -0.009 | [5] 0.039

PAFAH2 (UniProt Q99487)
inactive: [1] -0.032 | [2] 0.087 | [3] -0.036 | [4] -0.068 | [5] -0.034

NUP214 (UniProt P35658)
inactive: [1] -0.032 | [2] 0.021 | [3] -0.008 | [4] -0.034 | [5] -0.002

PAICS (UniProt E9PBS1)
inactive: [1] -0.321 | [2] 0.058 | [3] 0.01 | [4] 0.072 | [5] 0.169

PARD6B (UniProt Q9BYG5)
inactive: [1] 0.032 | [2] 0.001 | [3] -0.015 | [4] 0.007 | [5] 0.006

NUP85 (UniProt Q9BW27)
inactive: [1] -0.027 | [2] 0.028 | [3] 0.046 | [4] -0.009 | [5] -0.003

PACS1 (UniProt Q6VY07)
inactive: [1] -0.013 | [2] 0.023 | [3] 0.041 | [4] -0.02 | [5] -0.006

ODF2 (UniProt Q5BJF6)
inactive: [1] 0.094 | [2] -0.253 | [3] 0.044 | [4] 0 | [5] -0.153

PAF1 (UniProt Q8N7H5)
inactive: [1] 0.029 | [2] 0.008 | [3] -0.014 | [4] -0.004 | [5] -0.012

PAGR1 (UniProt Q9BTK6)
inactive: [1] -0.037 | [2] 0.065 | [3] 0.011 | [4] -0.011 | [5] 0.042

PANX1 (UniProt Q96RD7)
inactive: [1] 0.123 | [2] 0.105 | [3] -0.056 | [4] -0.04 | [5] -0.018

OGFOD1 (UniProt Q8N543)
inactive: [1] 0.004 | [2] 0.02 | [3] -0.011 | [4] 0.044 | [5] 0

PAIP1 (UniProt Q9H074)
inactive: [1] 0.005 | [2] 0.011 | [3] -0.016 | [4] 0.096 | [5] -0.052

NUP210 (UniProt Q8TEM1)
inactive: [1] -0.101 | [2] 0.07 | [3] 0.016 | [4] 0.04 | [5] 0.028

OTUD5 isoform 5 (UniProt Q96G74)
inactive: [1] 0.025 | [2] 0.003 | [3] -0.002 | [4] -0.025 | [5] -0.028

Taken from the results shown (seven entries):
NUP85 (UniProt Q9BW27)
inactive: [1] -0.027 | [2] 0.028 | [3] 0.046 | [4] -0.009 | [5] -0.003

PACS1 (UniProt Q6VY07)
inactive: [1] -0.013 | [2] 0.023 | [3] 0.041 | [4] -0.02 | [5] -0.006

ODF2 (UniProt Q5BJF6)
inactive: [1] 0.094 | [2] -0.253 | [3] 0.044 | [4] 0 | [5] -0.153

PAF1 (UniProt Q8N7H5)
inactive: [1] 0.029 | [2] 0.008 | [3] -0.014 | [4] -0.004 | [5] -0.012

PAGR1 (UniProt Q9BTK6)
inactive: [1] -0.037 | [2] 0.065 | [3] 0.011 | [4] -0.011 | [5] 0.042

PANX1 (UniProt Q96RD7)
inactive: [1] 0.123 | [2] 0.105 | [3] -0.056 | [4] -0.04 | [5] -0.018

OGFOD1 (UniProt Q8N543)
inactive: [1] 0.004 | [2] 0.02 | [3] -0.011 | [4] 0.044 | [5] 0

The list continues:

OPTN (UniProt Q96CV9)
inactive: [1] 0.041 | [2] 0.01 | [3] -0.031 | [4] -0.012 | [5] -0.042

OSBPL6 isoform 5 (UniProt Q9BZF3)
inactive: [1] 0.014 | [2] -0.023 | [3] 0.02 | [4] 0.023 | [5] -0.087

P2RX4 isoform 2 (UniProt Q99571)
inactive: [1] 0.057 | [2] 0.079 | [3] 0.044 | [4] 0.036 | [5] -0.069

OSTC isoform 2 (UniProt Q9NRP0)
inactive: [1] -0.027 | [2] 0.051 | [3] 0.003 | [4] -0.058 | [5] 0.081

OCIAD1 (UniProt Q9NX40)
inactive: [1] 0.012 | [2] -0.013 | [3] 0.005 | [4] 0.023 | [5] 0.021

NUP54 (UniProt Q7Z3B4)
inactive: [1] -0.006 | [2] 0.004 | [3] 0.014 | [4] -0.03 | [5] -0.048
